From US7037893 (dated 2006) come the findings set out here.

This data set is described as follows: general procedure: Fmoc solid-phase peptide synthesis; TentaGel resin SPHB-Lys(Boc)-Fmoc (0.22 mmol/g); HOBt/TBTU/NMM. The note with it: whole synthesis, scale of the general procedure 1.00 g resin.

Regarding “H-Thr-Pro-Arg-Val-Glu-Arg-Asn(Glc)-Gly-His-Ser-Val-Phe-Leu-Ala-Pro-Tyr-Gly-Trp-Met-Val-Lys-OH”, the “final HPLC purity” value is on record as “greater than 97%”.
